Article PMC6736871
These are yes or no findings as the source states them, for the method shown. Some binding calls cover weakened binding; strength is not graded here.

Biological target: Thermus thermophilus RuvC (Thermus thermophilus) (UniProt Q5SJC4)
Assay: crystal structure; Tt-RuvC (7 mg/ml) mixed with Holliday junction DNA at a 1.8:1 molar ratio, 5 mM EDTA; sitting drop vapor diffusion at 25 °C, 0.4 M ammonium phosphate; controlled dehydration, data at room temperature; 3.4 Å; both purified

B1: Thermus thermophilus RuvC (enzyme, UniProt Q5SJC4 1-166)
chain: MVVAGIDPGITHLGLGVVAVEGKGALKARLLHGEVVKTSPQEPAKERVGRIHARVLEVLHRFRPEAVAVEEQFFYRQNELAYKVGWALGAVLVAAFEAGVPVYAYGPMQVKQALAGHGHAAKEEVALMVRGILGLKEAPRPSHLADALAIALTHAFYARMGTAKPL
B1 was tested, and the binding was “binds”.
